Source: article PMC4726551
No constants are given. Whether binding was seen depends on the method and setting. Some entries that bind do so weakly or less than the wild type.

Target: T1, NTAP-Zfrp8 (UAS-TAP-Zfrp8 expressed in Drosophila ovaries) (Drosophila) (UniProt Q9W1A3)
T1 sequence: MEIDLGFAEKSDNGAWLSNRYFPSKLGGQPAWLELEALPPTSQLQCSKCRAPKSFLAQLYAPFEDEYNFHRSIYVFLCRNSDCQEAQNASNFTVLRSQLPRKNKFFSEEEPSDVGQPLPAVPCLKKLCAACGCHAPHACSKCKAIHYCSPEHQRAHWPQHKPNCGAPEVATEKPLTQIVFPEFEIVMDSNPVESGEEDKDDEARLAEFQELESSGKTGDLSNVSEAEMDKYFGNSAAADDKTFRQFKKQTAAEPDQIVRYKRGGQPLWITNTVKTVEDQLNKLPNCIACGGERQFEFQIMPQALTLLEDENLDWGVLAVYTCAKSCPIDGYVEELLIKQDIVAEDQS
Assay: TAP affinity purification with Western blot; one-step purification of TAP-Zfrp8 from Drosophila ovary extracts on Streptavidin Plus beads (IgG agarose and TEV steps skipped); blot with anti-Zfrp8 and anti-RpS2; w118 extract as negative control

- binding: binds
Substance: RpS2 (endogenous, Drosophila ovaries) (from UniProt P31009 1-267)
